Results from patent US20130338092A1, “COMPOUNDS AND METHODS FOR TARGETING LEUKEMIC STEM CELLS” (The Broad Institute, Inc., priority 2011, published 2013).
Read-outs that look alike come from different tables or passages of the source. At least one compound was matched to its structure with a doubt left. Some entries repeat one wording, which the source may state once for all of them.

What was measured:
[1] = test system: LSC-enriched leukemia cells (MLL-AF9); experiment: Leukemia coculture assay on primary MSC stroma (cobblestoning readout); format: cell-based, murine
Protocol: Whole bone marrow were harvested from C57/B16 actin-dsRed mice (006051, Jackson Labs), subjected to red blood cell lysis (Qiagen), then granulocyte-macrophage progenitors (GMPs) were isolated by Fluorescence-activated cell sorting (FACsAria, Becton Dickinson). GMPs were spinfected twice (2500 rpm, 90 min, 37 C) in the presence of mIL3 (10 ng/ml, Peprotech), mIL6 (10 ng/ml, Peprotech), and mSCF (10 ng/ml, Peprotech) with pMSCV-MLL-AF9-Neo virus then transplanted into lethally irradiated C57/B16 recipients. After disease onset, the spleens were harvested and transplanted into sublethally irradiated secondary recipients. Subsequent transplantation of bulk spleen cells from leukemic secondary mice was repeated twice to generate leukemic GMPs from quaternary transplant leukemic mouse bone marrow.
Long bones and hips from moribund leukemic mice were harvested, cleaned, crushed and sequentially passed through 100 and 70 μM filters (Falcon). The cells were RBC lysed (Qiagen) and stained in PBS+2% FBS (Omega). Antibodies included lineage markers CD4, CD8, Gr1, Mac1, IL-7R, and Ter119 (Caltag), c-kit (17-1172-83, eBioscience), Sca-1 (11-5981-82, eBioscience), CD34 (11-0341-85, eBioscience), and CD16/32 (25-0161-82, eBioscience). Hoechst 33258 (H21491, Invitrogen) was also used, to identify live cells. Cells were sorted on a FacsAria II (Becton Dickinson).
The humerii, tibiae, ilia, femurs, and spine were isolated from actin-GFP mice (000329, Jackson Lab) crushed using a mortar and pestle, washed in phosphate-buffered saline (PBS) without magnesium and calcium (Gibco) with 0.5% fetal bovine serum (FBS) (HyClone) and filtered through a 70-μm filter. Red blood cell lysis was performed with ammonium-chloride/potassium-chloride (ACK) lysing buffer (Lonza), the cells were resuspended in α-MEM (StemCell Technologies), 20% FBS (HyClone) and 1× Pen-Strep (CellGro), plated in 25 ml in 150-cm^2 tissue-culture flasks (three per mouse), and incubated at 33° C. with 5% CO2. After 2-3 days, the medium was replaced with fresh α-MEM with 20% FBS. […]

[2] = test system: human AML cell lines (U937, THP-1, NOMO-1, SKM-1, NB4, and OCI-AML3); experiment: AML cell line screen (CellTiter-Glo); format: cell-based
Protocol: Nomo-1, THP-1, SKM-1, NB4, and U937 cell lines were grown in RPMI (12-702F, BioWhittaker), 10% FBS (10082-147, Gibco), and 1% Pen-Strep (15140-122, Gibco) and OCI-AML3 was grown in α-MEM (36453, Stem Cell Technologies), 10% FBS (10082-147, Gibco), and 1% Pen-Strep (15140-122, Gibco). 3000 cells were plated in each well in 30 μl in white, 384 well plates (3570, Corning) and 16 hours later 100 nl of the appropriate compound was added to each well. 72 hours later the plates were cooled to room temperature and 30 μl of CellTiterGlo reagent (G7570, Promega) diluted 1:1 in PBS was added to each well and the plates were analyzed using an Envision (Perkin Elmer).
First, a traditional small molecule screen was performed on six human AML cell lines (U937, THP-1, NOMO-1, SKM-1, NB4, and OCI-AML3), two of which (NOMO-1, THP-1) contain the same oncogene (MLL-AF9) used to generate the primary leukemia cells utilized in our coculture system. The cell lines were grown in isolation under standard conditions, treated with the 160 compounds at 8-point dose, and three days later the viability of each well was quantified using CellTiter-Glo reagent. The IC50s from these AML cell line screens were then compared to the IC50s from the coculture screens. […]

[3] = test system: leukemic cobblestoning on pretreated OP9 stromal cells; experiment: Stromal pretreatment screen on OP9 stroma; format: cell-based, murine; settings: compound on OP9 stroma for 3 days, washed before LSC plating
Protocol: OP9 cells were plated as in the primary screen. 24 hours later compounds were added to the stromal cultures and the plates were incubated for three days. […] As before, the plates were imaged after 6 days of coculture, and the level of cobblestoning was quantified. Any inhibition of cobblestoning observed under these modified assay conditions would presumably be due to the activity of the compound on the niche, and would allow the analysis of cell non-cell-autonomous mechanisms of leukemia growth inhibition.

SMILES	leukemia-selective activity in coculture vs normal HSPCs [1]	activity against AML cell lines (words) [2]	activity against AML cell lines (words) ([2]; listed as troglitazone)	leukemic cobblestoning after stromal pretreatment [3]
COCc1c(C(C)C)nc(C(C)C)c(/C=C/[C@@H](O)C[C@@H](O)CC(=O)O)c1-c1ccc(F)cc1 [Cerivastatin]	selectively inhibited leukemia cobblestoning			
CC(C)n1c(/C=C/C(O)CC(O)CC(=O)O)c(-c2ccc(F)cc2)c2ccccc21 (stereo not drawn) [Fluvastatin]	selectively inhibited leukemia cobblestoning			
CCC(C)(C)C(=O)O[C@H]1C[C@@H](C)C=C2C=C[C@H](C)[C@H](CC[C@@H]3C[C@@H](O)CC(=O)O3)[C@H]21 [Simvastatin]	selectively inhibited leukemia cobblestoning			
Cc1c(C)c2c(c(C)c1O)CCC(C)(COc1ccc(CC3SC(=O)NC3=O)cc1)O2 (stereo not drawn) [Troglitazone]		did not display activity	not observed	inhibited leukemia cobblestoning
